For this data set, the system named is PpERF9. The data set is described as follows: EMSA. As to conditions: cold competitor 50-, 100-, 200-fold; LightShift Chemiluminescent EMSA Kit (Thermo Scientific); pH and temperature not stated; recombinant protein; protein details: His (pET32a); label: 3' biotin (hot probe), unlabeled as competitor.

Construct, isoform or probe ends are uncertain for at least one entry.

As for “CCAGACCAAGACTAACTGGGAGTCCACCGACAGGTGCCGGTTGGAAAAGGACAGGTG (double strand) [ProRAP2.4-probe]”, the binding result is on record as “binds”. “GCTTGCCGTCTTTGTCGTCTCCGGCGCCGCCATCTACATCTGCTTCCAGGTTCAAC (double strand) [ProMYB114-probe]”: the binding result is on record as “binds”.

For the origin of these results see article PMC10226596, “The ethylene-responsive transcription factor PpERF9 represses PpRAP2.4 and PpMYB114 via histone deacetylation to inhibit anthocyanin biosynthesis in pear”.
